# Test results as given in the supplement of paper PMC8728848.
# This is one part of the list.
# Columns and labels:
# Test in all cases: glycan array binding signal (z-score within array); higher = stronger binding
# Conditions in all cases: glycan notation: IUPAC condensed, linker removed
# Fuc(a1-2)Gal = biological target: Fuc(a1-2)Gal
# How it was run: (§1)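 Glycan array data came from 3228 arrays in the Consortium for Functional Glycomics database, and only arrays with an available protein sequence were kept. Glycan names were put into IUPAC-condensed notation, and columns mapping to the same glycan were averaged. The binding signal is a within-array Z-score, averaged across arrays of one protein sequence run at different concentrations or buffers and across linkers. A negative Z-score can be read as non-binding.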
# Fuc(a1-2)Gal(b1-3)GalNAc = biological target: Fuc(a1-2)Gal(b1-3)GalNAc
# How it was run: as §1
# [1] = biological target: Fuc(a1-2)Gal(b1-3)GalNAc(a1-3)[Fuc(a1-2)]Gal(b1-4)Glc
# How it was run: as §1
# [2] = biological target: Fuc(a1-2)Gal(b1-3)GalNAc(a1-3)[Fuc(a1-2)]Gal(b1-4)GlcNAc
# How it was run: as §1
# [3] = biological target: Fuc(a1-2)Gal(b1-3)GalNAc(b1-3)Gal
# How it was run: as §1
# [4] = biological target: Fuc(a1-2)Gal(b1-3)GalNAc(b1-3)Gal(a1-4)Gal(b1-4)Glc
# How it was run: as §1
# [5] = biological target: Fuc(a1-2)Gal(b1-3)GalNAc(b1-4)[Neu5Ac(a2-3)]Gal(b1-4)Glc
# How it was run: as §1
# Fuc(a1-2)Gal(b1-3)GlcNAc = biological target: Fuc(a1-2)Gal(b1-3)GlcNAc
# How it was run: as §1
# [6] = biological target: Fuc(a1-2)Gal(b1-3)GlcNAc(b1-2)Man(a1-3)[Fuc(a1-2)Gal(b1-3)GlcNAc(b1-2)Man(a1-6)]Man(b1-4)GlcNAc(b1-4)GlcNAc
# How it was run: as §1
# [7] = biological target: Fuc(a1-2)Gal(b1-3)GlcNAc(b1-2)Man(a1-3)[Fuc(a1-2)Gal(b1-3)GlcNAc(b1-2)Man(a1-6)]Man(b1-4)GlcNAc(b1-4)[Fuc(a1-6)]GlcNAc
# How it was run: as §1
# [8] = biological target: Fuc(a1-2)Gal(b1-3)GlcNAc(b1-3)Gal(b1-4)Glc
# How it was run: as §1
# [9] = biological target: Fuc(a1-2)Gal(b1-3)GlcNAc(b1-3)GalNAc
# How it was run: as §1
# [10] = biological target: Fuc(a1-2)Gal(b1-3)GlcNAc(b1-3)[Fuc(a1-2)Gal(b1-3)GlcNAc(b1-6)]GalNAc
# How it was run: as §1
# [11] = biological target: Fuc(a1-2)Gal(b1-3)GlcNAc(b1-3)[Gal(b1-4)GlcNAc(b1-6)]Gal(b1-4)Glc
# How it was run: as §1
# [12] = biological target: Fuc(a1-2)Gal(b1-3)GlcNAc(b1-3)[Neu5Ac(a2-6)Gal(b1-4)GlcNAc(b1-6)]Gal(b1-4)Glc
# How it was run: as §1
# [13] = biological target: Fuc(a1-2)Gal(b1-3)GlcNAc6S
# How it was run: as §1
# [14] = biological target: Fuc(a1-2)Gal(b1-3)[Fuc(a1-4)]GlcNAc
# How it was run: as §1
# [15] = biological target: Fuc(a1-2)Gal(b1-3)[Fuc(a1-4)]GlcNAc(b1-2)Man(a1-3)[Fuc(a1-2)Gal(b1-3)[Fuc(a1-4)]GlcNAc(b1-2)Man(a1-3)]Man(b1-4)GlcNAc(b1-4)GlcNAc
# How it was run: as §1
# [16] = biological target: Fuc(a1-2)Gal(b1-3)[Fuc(a1-4)]GlcNAc(b1-2)Man(a1-3)[Fuc(a1-2)Gal(b1-3)[Fuc(a1-4)]GlcNAc(b1-2)Man(a1-6)]Man(b1-4)GlcNAc(b1-4)[Fuc(a1-6)]GlcNAc(b1-4)[Fuc(a1-6)]GlcNAc
# How it was run: as §1
# [17] = biological target: Fuc(a1-2)Gal(b1-3)[Fuc(a1-4)]GlcNAc(b1-3)[Fuc(a1-3)[Gal(b1-4)]GlcNAc(b1-6)]Gal(b1-4)Glc
# How it was run: as §1
# [18] = biological target: Fuc(a1-2)Gal(b1-3)[Fuc(a1-4)]GlcNAc(b1-3)[Gal(b1-4)GlcNAc(b1-6)]Gal(b1-4)Glc
# How it was run: as §1
# [19] = biological target: Fuc(a1-2)Gal(b1-4)Fuc(a1-3)]GlcNAc(b1-2)Man(a1-3)[Fuc(a1-2)Gal(b1-4)[Fuc(a1-3)]GlcNAc(b1-2)Man(a1-6)]Man(b1-4)GlcNAc(b1-4)GlcNAc
# How it was run: as §1
# Fuc(a1-2)Gal(b1-4)Glc = biological target: Fuc(a1-2)Gal(b1-4)Glc
# How it was run: as §1
# Fuc(a1-2)Gal(b1-4)Glc6S = biological target: Fuc(a1-2)Gal(b1-4)Glc6S
# How it was run: as §1
# Fuc(a1-2)Gal(b1-4)GlcNAc = biological target: Fuc(a1-2)Gal(b1-4)GlcNAc
# How it was run: as §1
# [20] = biological target: Fuc(a1-2)Gal(b1-4)GlcNAc(b1-2)Man
# How it was run: as §1
# [21] = biological target: Fuc(a1-2)Gal(b1-4)GlcNAc(b1-2)Man(a1-3)[Fuc(a1-2)Gal(b1-4)GlcNAc(b1-2)Man(a1-6)]Man(b1-4)GlcNAc(b1-4)GlcNAc
# How it was run: as §1
# [22] = biological target: Fuc(a1-2)Gal(b1-4)GlcNAc(b1-2)Man(a1-3)[Fuc(a1-2)Gal(b1-4)GlcNAc(b1-2)Man(a1-6)]Man(b1-4)GlcNAc(b1-4)[Fuc(a1-6)]GlcNAc
# How it was run: as §1
# [23] = biological target: Fuc(a1-2)Gal(b1-4)GlcNAc(b1-2)[Fuc(a1-2)Gal(b1-4)GlcNAc(b1-4)]Man(a1-3)[Fuc(a1-2)Gal(b1-4)GlcNAc(b1-2)Man(a1-6)]Man(b1-4)GlcNAc(b1-4)GlcNAc
# How it was run: as §1
# [24] = biological target: Fuc(a1-2)Gal(b1-4)GlcNAc(b1-3)Gal(b1-4)GlcNAc
# How it was run: as §1
binder,measurement,setting,value
"AntigenI/IIC123 (Streptococcus mutans), C9E3B4 (protein) MASMTGGQQMGRIHFHYFKLAVQPQVNKEIRNNNDINIDRTLVAKQSVVKFQLKTADLPAGRDETTSFVLVDPLPSGYQFNPEATKAASPGFDVTYDNATNTVTFKATAATLATFNADLTKSVATIYPTVVGQVLNDGATYKNNFTLTVNDAYGIKSNVVRVTTPGKPNDPDNPNNNYIKPTKVNKNENGVVIDGKTVLAGSTNYYELTWDLDQYKNDRSSADTIQKGFYYVDDYPEEALELRQDLVKITDANGNEVTGVSVDNYTNLEAAPQEIRDVLSKAGIRPKGAFQIFRADNPREFYDTYVKTGIDLKIVSPMVVKKQMGQTGGSYENQAYQIDFGNGYASNIIINNVPKINPKKDVTLTLDPADTNNVDGQTIPLNTVFNYRLIGGIIPADHSEELFEYNFYDDYDQTGDHYTGQYKVFAKVDITFKDGSIIKSGAELTQYTTAEVDTAKGAITIKFKEAFLRSVSIDSAFQAESYIQMKRIAVGTFENTYINTVNGVTYSSLEHHHHHH",glycan array binding signal (z-score),Fuc(a1-2)Gal,0.238
same,glycan array binding signal (z-score),Fuc(a1-2)Gal(b1-3)GalNAc,-0.572
same,glycan array binding signal (z-score),[1],-0.468
same,glycan array binding signal (z-score),[2],0.234
same,glycan array binding signal (z-score),[3],-0.622
same,glycan array binding signal (z-score),[4],0.182
same,glycan array binding signal (z-score),[5],-0.432
same,glycan array binding signal (z-score),Fuc(a1-2)Gal(b1-3)GlcNAc,-0.691
same,glycan array binding signal (z-score),[6],1.44
same,glycan array binding signal (z-score),[7],2.08
same,glycan array binding signal (z-score),[8],-0.259
same,glycan array binding signal (z-score),[9],1.04
same,glycan array binding signal (z-score),[10],3.07
same,glycan array binding signal (z-score),[11],-0.6
same,glycan array binding signal (z-score),[12],0.012
same,glycan array binding signal (z-score),[13],-0.232
same,glycan array binding signal (z-score),[14],-0.746
same,glycan array binding signal (z-score),[15],-0.139
same,glycan array binding signal (z-score),[16],0.04
same,glycan array binding signal (z-score),[17],-0.898
same,glycan array binding signal (z-score),[18],-0.704
same,glycan array binding signal (z-score),[19],0.084
same,glycan array binding signal (z-score),Fuc(a1-2)Gal(b1-4)Glc,-0.774
same,glycan array binding signal (z-score),Fuc(a1-2)Gal(b1-4)Glc6S,-0.994
same,glycan array binding signal (z-score),Fuc(a1-2)Gal(b1-4)GlcNAc,0.093
same,glycan array binding signal (z-score),[20],0.778
same,glycan array binding signal (z-score),[21],0.723
same,glycan array binding signal (z-score),[22],-0.935
same,glycan array binding signal (z-score),[23],-0.219
same,glycan array binding signal (z-score),[24],-0.647

# An excerpt of these results, bar-delimited:
binder | measurement | setting | value
AntigenI/IIC123 (Streptococcus mutans), C9E3B4 (protein) MASMTGGQQMGRIHFHYFKLAVQPQVNKEIRNNNDINIDRTLVAKQSVVKFQLKTADLPAGRDETTSFVLVDPLPSGYQFNPEATKAASPGFDVTYDNATNTVTFKATAATLATFNADLTKSVATIYPTVVGQVLNDGATYKNNFTLTVNDAYGIKSNVVRVTTPGKPNDPDNPNNNYIKPTKVNKNENGVVIDGKTVLAGSTNYYELTWDLDQYKNDRSSADTIQKGFYYVDDYPEEALELRQDLVKITDANGNEVTGVSVDNYTNLEAAPQEIRDVLSKAGIRPKGAFQIFRADNPREFYDTYVKTGIDLKIVSPMVVKKQMGQTGGSYENQAYQIDFGNGYASNIIINNVPKINPKKDVTLTLDPADTNNVDGQTIPLNTVFNYRLIGGIIPADHSEELFEYNFYDDYDQTGDHYTGQYKVFAKVDITFKDGSIIKSGAELTQYTTAEVDTAKGAITIKFKEAFLRSVSIDSAFQAESYIQMKRIAVGTFENTYINTVNGVTYSSLEHHHHHH | glycan array binding signal (z-score) | [23] | -0.219
same | glycan array binding signal (z-score) | [24] | -0.647
